Measured values from patent US8273713B2 (Amylin Pharmaceuticals, LLC, priority 2000, dated 2012).
At least one structure is not confirmed: it was looked up by name or label, or the drawing left a doubt.

What was measured:
[1] = system: food intake; experiment: Food intake in overnight-fasted NIH/SW mice; assay type: in vivo
Protocol: Female NIH/Swiss mice (8-12 weeks old) were group housed with a 12:12 hour light:dark cycle with lights on at 0600. Water and a standard pelleted mouse chow diet were available ad libitum, except as noted. Animals were fasted and housed individually starting at approximately 1500 hrs, 1 day prior to experiment. The morning of the experiment (approx. 0630 hrs), all animals were weighed and divided into experimental groups so as to give the most similar weight distribution between groups. In a typical study, n=10 for the control group and at least 5 for each treatment group. At time=0 min, all animals were given an intraperitoneal injection of vehicle or compound in a volume of 5 ml/kg and immediately given a pre-weighed amount (10-15 g) of the standard chow. […] Significant treatment effects were identified by ANOVA (p<0.05). Where a significant difference existed, test means were compared to the control mean using Dunnett's test (Prism v2.01, GraphPad Software Inc., San Diego, Calif.).

[2] = system: gastric emptying; experiment: Gastric emptying in HSD rats (3H-3-O-methyl-glucose gavage); assay type: in vivo
Protocol: Male HSD rats, 180-215 g, were housed with a 12:12 hour light:dark cycle and fasted for 20 hrs (overnight). […] At t=1 min, a solution of 1 mL sterile water containing 5 μCi of ^3H-3-O-methyl-glucose was gavaged by oropharyngeal tube to conscious rats. Blood samples (10 μl) were collected 40 min after gavage and assayed for counts per minute (CPM) in plasma. To eliminate pain during tail vein sampling, 2% Lidocaine (0.1 ml) was injected 3-4 cm from the end of the tail (Gedulin, Jodka et al. Gastroenterology 108: […], 1995). Effects of the test compound were expressed as percent change relative to control, which was calculated as -100*(1-(mean value test rats/mean value controls)). Relative activity was defined as significant if p<0.05 as determined by ANOVA. Where a significant difference existed, test means were compared to the control mean using Dunnett's test (Prism v2.01, GraphPad Software Inc., San Diego, Calif.).

[3] = given peripherally, dose not given

CC[C@H](C)[C@H](NC(=O)[C@H](Cc1ccc(O)cc1)NC(=O)[C@H](CCCNC(=N)N)NC(=O)[C@H](CCCNC(=N)N)NC(=O)[C@H](CC(C)C)NC(=O)[C@H](CC(=O)O)NC(=O)[C@H](C)NC(=O)[C@H](C)NC(=O)[C@H](Cc1ccc(O)cc1)NC(=O)[C@H](CCC(N)=O)NC(=O)[C@H](C)NC(=O)[C@H](CCSC)NC(=O)[C@H](CCC(N)=O)NC(=O)[C@H](CCC(=O)O)NC(=O)[C@@H]1CCCN1C(=O)[C@@H](NC(=O)[C@H](C)NC(=O)[C@H](CC(N)=O)NC(=O)[C@H](CC(=O)O)NC(=O)CNC(=O)[C@@H]1CCCN1C(=O)[C@H](Cc1ccc(O)cc1)NC(=O)[C@@H](NC(=O)[C@@H]1CCCN1C(=O)[C@H](CCC(=O)O)NC(=O)[C@H](CC(C)C)NC(=O)[C@@H]1CCCN1C(=O)[C@H](C)N)C(C)C)[C@@H](C)O)C(=O)N[C@@H](CC(N)=O)C(=O)N[C@@H](CCSC)C(=O)N[C@@H](CC(C)C)C(=O)N[C@H](C(=O)N[C@@H](CCCNC(=N)N)C(=O)N1CCC[C@H]1C(=O)N[C@@H](CCCNC(=N)N)C(=O)N[C@@H](Cc1ccc(O)cc1)C(N)=O)[C@@H](C)O [PP, Pancreatic polypeptide]
effect on food intake ([1]; 500 μg/kg intraperitoneal, 60 min): trend toward activity
effect on food intake (summary) [1, 3]: little or no effect on food consumption
effect on gastric emptying ([2]; 500 μg/kg intraperitoneal, 40 minutes): inactive
effect on gastric emptying (summary) [2, 3]: essentially inactive
